For 3 molecules, binding results are on record in article doi:10.1101/2021.01.18.427104.

Protein sequences, listed by entry. Tags and fused reporters are not part of them.
UniProt P0C746, whole entry: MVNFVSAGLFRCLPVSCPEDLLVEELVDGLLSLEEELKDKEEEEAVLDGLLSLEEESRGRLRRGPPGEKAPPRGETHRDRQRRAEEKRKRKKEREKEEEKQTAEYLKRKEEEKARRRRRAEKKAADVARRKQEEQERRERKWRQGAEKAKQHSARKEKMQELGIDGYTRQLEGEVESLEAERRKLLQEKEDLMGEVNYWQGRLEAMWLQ
UniProt P26368, whole entry: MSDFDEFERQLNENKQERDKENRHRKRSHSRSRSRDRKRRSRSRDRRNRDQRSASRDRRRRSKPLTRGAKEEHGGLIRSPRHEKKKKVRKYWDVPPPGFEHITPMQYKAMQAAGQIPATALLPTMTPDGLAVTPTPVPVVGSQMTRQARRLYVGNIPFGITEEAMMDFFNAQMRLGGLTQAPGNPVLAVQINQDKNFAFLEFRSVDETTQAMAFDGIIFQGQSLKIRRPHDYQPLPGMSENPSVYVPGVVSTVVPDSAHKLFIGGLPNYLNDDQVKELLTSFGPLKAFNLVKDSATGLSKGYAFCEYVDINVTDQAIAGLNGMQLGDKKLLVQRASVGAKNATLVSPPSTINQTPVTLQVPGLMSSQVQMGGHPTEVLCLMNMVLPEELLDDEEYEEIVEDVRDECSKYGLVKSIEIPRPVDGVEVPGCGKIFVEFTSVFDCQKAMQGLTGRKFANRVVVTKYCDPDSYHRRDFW

In assay [1] the target is HBZ (HTLV-1), yeast two-hybrid clones (HTLV-1) (UniProt P0C746). As to the kind of experiment: two-hybrid.
The target of assay [2] is U2AF65, Gaussia luciferase fragment fusion (human), P26368. As to the kind of experiment: split reporter. Conditions: remark: other sources report otherwise.
Assay [3] addresses Tax (HTLV-1), Gaussia luciferase fragment fusion (HTLV-1) (UniProt P03409). In words: split reporter.

No constants are given. Whether binding was seen depends on the method and setting. For part of these data: Binding seen in cells or lysates may run through a third protein. Some binding calls cover weakened binding; strength is not graded here. For part of these data: Where a sequence is shown, tags or fusion partners need not be part of it.

B1: complementary factor for APOBEC-1 (A1CF), yeast two-hybrid clone (protein, UniProt Q9NQ94 1-594)
chain: MESNHKSGDGLSGTQKEAALRALVQRTGYSLVQENGQRKYGGPPPGWDAAPPERGCEIFIGKLPRDLFEDELIPLCEKIGKIYEMRMMMDFNGNNRGYAFVTFSNKVEAKNAIKQLNNYEIRNGRLLGVCASVDNCRLFVGGIPKTKKREEILSEMKKVTEGVVDVIVYPSAADKTKNRGFAFVEYESHRAAAMARRKLLPGRIQLWGHGIAVDWAEPEVEVDEDTMSSVKILYVRNLMLSTSEEMIEKEFNNIKPGAVERVKKIRDYAFVHFSNREDAVEAMKALNGKVLDGSPIEVTLAKPVDKDSYVRYTRGTGGRGTMLQGEYTYSLGQVYDPTTTYLGAPVFYAPQTYAAIPSLHFPATKGHLSNRAIIRAPSVREIYMNVPVGAAGVRGLGGRGYLAYTGLGRGYQVKGDKREDKLYDILPGMELTPMNPVTLKPQGIKLAPQILEEICQKNNWGQPVYQLHSAIGQDQRQLFLYKITIPALASQNPAIHPFTPPKLSAFVDEAKTYAAEYTLQTLGIPTDGGDGTMATAAAAATAFPGYAVPNATAPVSAAQLKQAVTLGQDLAAYTTYEVYPTFAVTARGDGYGTF
B1: the binding entry in assay [1] is listed as “binds”.

B2: U2AF35, Gaussia luciferase fragment fusion, Q01081 1-240 (protein)
chain: MAEYLASIFGTEKDKVNCSFYFKIGACRHGDRCSRLHNKPTFSQTIALLNIYRNPQNSSQSADGLRCAVSDVEMQEHYDEFFEEVFTEMEEKYGEVEEMNVCDNLGDHLVGNVYVKFRREEDAEKAVIDLNNRWFNGQPIHAELSPVTDFREACCRQYEMGECTRGGFCNFMHLKPISRELRRELYGRRRKKHRSRSRSRERRSRSRDRGRGGGGGGGGGGGGRERDRRRSRDRERSGRF
As to B2, the binding result in assay [2] is listed as “binds”.

B3: U2AF35, Gaussia luciferase fragment fusion (protein, UniProt Q01081 1-240)
chain: MAEYLASIFGTEKDKVNCSFYFKIGACRHGDRCSRLHNKPTFSQTIALLNIYRNPQNSSQSADGLRCAVSDVEMQEHYDEFFEEVFTEMEEKYGEVEEMNVCDNLGDHLVGNVYVKFRREEDAEKAVIDLNNRWFNGQPIHAELSPVTDFREACCRQYEMGECTRGGFCNFMHLKPISRELRRELYGRRRKKHRSRSRSRERRSRSRDRGRGGGGGGGGGGGGRERDRRRSRDRERSGRF
For the molecule B3, the binding entry in assay [3] is “no binding”.
